B1: CD36L1 (protein, UniProt Q8WTV0 1-552, looked up)
Scavenger receptor class B …: MGCSAKARWAAGALGVAGLLCAVLGAVMIVMVPSLIKQQVLKNVRIDPSSLSFNMWKEIPIPFYLSVYFFDVMNPSEILKGEKPQVRERGPYVYREFRHKSNITFNNNDTVSFLEYRTFQFQPSKSHGSESDYIVMPNILVLGAAVMMENKPMTLKLIMTLAFTTLGERAFMNRTVGEIMWGYKDPLVNLINKYFPGMFPFKDKFGLFAELNNSDSGLFTVFTGVQNISRIHLVDKWNGLSKVDFWHSDQCNMINGTSGQMWPPFMTPESSLEFYSPEACRSMKLMYKESGVFEGIPTYRFVAPKTLFANGSIYPPNEGFCPCLESGIQNVSTCRFSAPLFLSHPHFLNADPVLAEAVTGLHPNQEAHSLFLDIHPVTGIPMNCSVKLQLSLYMKSVAGIGQTGKIEPVVLPLLWFAESGAMEGETLHTFYTQLVLMPKVMHYAQYVLLALGCVLLLVPVICQIRSQVGAGQRAARADSHSLACWGKGASDRTLWPTAAWSPPPAAVLRLCRSGSGHCWGLRSTLASFACRVATTLPVLEGLGPSLGGGTGS
B2: CD10 (protein, UniProt P08473 2-750, looked up)
Neprilysin: GKSESQMDITDINTPKPKKKQRWTPLEISLSVLVLLLTIIAVTMIALYATYDDGICKSSDCIKSAARLIQNMDATTEPCTDFFKYACGGWLKRNVIPETSSRYGNFDILRDELEVVLKDVLQEPKTEDIVAVQKAKALYRSCINESAIDSRGGEPLLKLLPDIYGWPVATENWEQKYGASWTAEKAIAQLNSKYGKKVLINLFVGTDDKNSVNHVIHIDQPRLGLPSRDYYECTGIYKEACTAYVDFMISVARLIRQEERLPIDENQLALEMNKVMELEKEIANATAKPEDRNDPMLLYNKMTLAQIQNNFSLEINGKPFSWLNFTNEIMSTVNISITNEEDVVVYAPEYLTKLKPILTKYSARDLQNLMSWRFIMDLVSSLSRTYKESRNAFRKALYGTTSETATWRRCANYVNGNMENAVGRLYVEAAFAGESKHVVEDLIAQIREVFIQTLDDLTWMDAETKKRAEEKALAIKERIGYPDDIVSNDNKLNNEYLELNYKEDEYFENIIQNLKFSQSKQLKKLREKVDKDEWISGAAVVNAFYSSGRNQIVFPAGILQPPFFSAQQSNSLNYGGIGMVIGHEITHGFDDNGRNFNKDGDLVDWWTQQSASNFKEQSQCMVYQYGNFSWDLAGGQHLNGINTLGENIADNGGLGQAYRAYQNYIKKNGEEKLLPGLDLNHKQLFFLNFAQVWCGTYRPEYAVNSIKTDVHSPGNFRIIGTLQNSAEFSEAFHCRKNSYMNPEKKCRVW
B3: CD45 (protein, UniProt P08575 26-1306, looked up)
Receptor-type …: QSPTPSPTGLTTAKMPSVPLSSDPLPTHTTAFSPASTFERENDFSETTTSLSPDNTSTQVSPDSLDNASAFNTTGVSSVQTPHLPTHADSQTPSAGTDTQTFSGSAANAKLNPTPGSNAISDVPGERSTASTFPTDPVSPLTTTLSLAHHSSAALPARTSNTTITANTSDAYLNASETTTLSPSGSAVISTTTIATTPSKPTCDEKYANITVDYLYNKETKLFTAKLNVNENVECGNNTCTNNEVHNLTECKNASVSISHNSCTAPDKTLILDVPPGVEKFQLHDCTQVEKADTTICLKWKNIETFTCDTQNITYRFQCGNMIFDNKEIKLENLEPEHEYKCDSEILYNNHKFTNASKIIKTDFGSPGEPQIIFCRSEAAHQGVITWNPPQRSFHNFTLCYIKETEKDCLNLDKNLIKYDLQNLKPYTKYVLSLHAYIIAKVQRNGSAAMCHFTTKSAPPSQVWNMTVSMTSDNSMHVKCRPPRDRNGPHERYHLEVEAGNTLVRNESHKNCDFRVKDLQYSTDYTFKAYFHNGDYPGEPFILHHSTSYNSKALIAFLAFLIIVTSIALLVVLYKIYDLHKKRSCNLDEQQELVERDDEKQLMNVEPIHADILLETYKRKIADEGRLFLAEFQSIPRVFSKFPIKEARKPFNQNKNRYVDILPYDYNRVELSEINGDAGSNYINASYIDGFKEPRKYIAAQGPRDETVDDFWRMIWEQKATVIVMVTRCEEGNRNKCAEYWPSMEEGTRAFGDVVVKINQHKRCPDYIIQKLNIVNKKEKATGREVTHIQFTSWPDHGVPEDPHLLLKLRRRVNAFSNFFSGPIVVHCSAGVGRTGTYIGIDAMLEGLEAENKVDVYGYVVKLRRQRCLMVQVEAQYILIHQALVEYNQFGETEVNLSELHPYLHNMKKRDPPSEPSPLEAEFQRLPSYRSWRTQHIGNQEENKSKNRNSNVIPYDYNRVPLKHELEMSKESEHDSDESSDDDSDSEEPSKYINASFIMSYWKPEVMIAAQGPLKETIGDFWQMIFQRKVKVIVMLTELKHGDQEICAQYWGEGKQTYGDIEVDLKDTDKSSTYTLRVFELRHSKRKDSRTVYQYQYTNWSVEQLPAEPKELISMIQVVKQKLPQKNSSEGNKHHKSTPLLIHCRDGSQQTGIFCALLNLLESAETEEVVDIFQVVKALRKARPGMVSTFEQYQFLYDVIASTYPAQNGQVKKNNHQEDKIEFDNEVDKVKQDANCVNPLGAPEKLPEAKEQAEGSEPTSGTEGPEHSVNGPASPALNQGS
B4: CD55 (protein, UniProt P08174 35-353, looked up)
Complement decay-accelerating …: DCGLPPDVPNAQPALEGRTSFPEDTVITYKCEESFVKIPGEKDSVICLKGSQWSDIEEFCNRSCEVPTRLNSASLKQPYITQNYFPVGTVVEYECRPGYRREPSLSPKLTCLQNLKWSTAVEFCKKKSCPNPGEIRNGQIDVPGGILFGATISFSCNTGYKLFGSTSSFCLISGSSVQWSDPLPECREIYCPAPPQIDNGIIQGERDHYGYRQSVTYACNKGFTMIGEHSIYCTVNNDEGEWSGPPPECRGKSLTSKVPPTVQKPTTVNVPTTEVSPTSQKTTTKTTTPNAQATRSTPVSRTTKHFHETTPNKGSGTTS
B5: CD62E (protein, UniProt P16581 22-610, looked up)
E-selectin: WSYNTSTEAMTYDEASAYCQQRYTHLVAIQNKEEIEYLNSILSYSPSYYWIGIRKVNNVWVWVGTQKPLTEEAKNWAPGEPNNRQKDEDCVEIYIKREKDVGMWNDERCSKKKLALCYTAACTNTSCSGHGECVETINNYTCKCDPGFSGLKCEQIVNCTALESPEHGSLVCSHPLGNFSYNSSCSISCDRGYLPSSMETMQCMSSGEWSAPIPACNVVECDAVTNPANGFVECFQNPGSFPWNTTCTFDCEEGFELMGAQSLQCTSSGNWDNEKPTCKAVTCRAVRQPQNGSVRCSHSPAGEFTFKSSCNFTCEEGFMLQGPAQVECTTQGQWTQQIPVCEAFQCTALSNPERGYMNCLPSASGSFRYGSSCEFSCEQGFVLKGSKRLQCGPTGEWDNEKPTCEAVRCDAVHQPPKGLVRCAHSPIGEFTYKSSCAFSCEEGFELHGSTQLECTSQGQWTEEVPSCQVVKCSSLAVPGKINMSCSGEPVFGTVCKFACPEGWTLNGSAARTCGATGHWSGLLPTCEAPTESNIPLVAGLSAAGLSLLTLAPFLLWLRKCLRKAKKFVPASSCQSLESDGSYQKPSYIL
B6: CD105 (Endoglin) (protein, UniProt P17813 26-658, looked up)
Endoglin: ETVHCDLQPVGPERGEVTYTTSQVSKGCVAQAPNAILEVHVLFLEFPTGPSQLELTLQASKQNGTWPREVLLVLSVNSSVFLHLQALGIPLHLAYNSSLVTFQEPPGVNTTELPSFPKTQILEWAAERGPITSAAELNDPQSILLRLGQAQGSLSFCMLEASQDMGRTLEWRPRTPALVRGCHLEGVAGHKEAHILRVLPGHSAGPRTVTVKVELSCAPGDLDAVLILQGPPYVSWLIDANHNMQIWTTGEYSFKIFPEKNIRGFKLPDTPQGLLGEARMLNASIVASFVELPLASIVSLHASSCGGRLQTSPAPIQTTPPKDTCSPELLMSLIQTKCADDAMTLVLKKELVAHLKCTITGLTFWDPSCEAEDRGDKFVLRSAYSSCGMQVSASMISNEAVVNILSSSSPQRKKVHCLNMDSLSFQLGLYLSPHFLQASNTIEPGQQSFVQVRVSPSVSEFLLQLDSCHLDLGPEGGTVELIQGRAAKGNCVSLLSPSPEGDPRFSFLLHFYTVPIPKTGTLSCTVALRPKTGSQDQEVHRTVFMRLNIISPDLSGCTSKGLVLPAVLGITFGAFLIGALLTAALWYIYSHTRSPSKREPVVAVAAPASSESSSTNHSIGSTQSTPCSTSSMA
B7: CD9 (protein, UniProt P21926 2-228, looked up)
CD9 antigen: PVKGGTKCIKYLLFGFNFIFWLAGIAVLAIGLWLRFDSQTKSIFEQETNNNNSSFYTGVYILIGAGALMMLVGFLGCCGAVQESQCMLGLFFGFLLVIFAIEIAAAIWGYSHKDEVIKEVQEFYKDTYNKLKTKDEPQRETLKAIHYALNCCGLAGGVEQFISDICPKKDVLETFTVKSCPDAIKEVFDNKFHIIGAVGIGIAVVMIFGMIFSMILCCAIRRNREMV
B8: CD90 (protein, UniProt P04216 20-130, looked up)
Thy-1 membrane glycoprotein: QKVTSLTACLVDQSLRLDCRHENTSSSPIQYEFSLTRETKKHVLFGTVGVPEHTYRSRTNFTSKYNMKVLYLSAFTSKDEGTYTCALHHSGHSPPISSQNVTVLRDKLVKC
B9: CD96 (protein, UniProt P40200 22-585, looked up)
T-cell surface protein tactile: VWEKTVNTEENVYATLGSDVNLTCQTQTVGFFVQMQWSKVTNKIDLIAVYHPQYGFYCAYGRPCESLVTFTETPENGSKWTLHLRNMSCSVSGRYECMLVLYPEGIQTKIYNLLIQTHVTADEWNSNHTIEIEINQTLEIPCFQNSSSKISSEFTYAWSVENSSTDSWVLLSKGIKEDNGTQETLISQNHLISNSTLLKDRVKLGTDYRLHLSPVQIFDDGRKFSCHIRVGPNKILRSSTTVKVFAKPEIPVIVENNSTDVLVERRFTCLLKNVFPKANITWFIDGSFLHDEKEGIYITNEERKGKDGFLELKSVLTRVHSNKPAQSDNLTIWCMALSPVPGNKVWNISSEKITFLLGSEISSTDPPLSVTESTLDTQPSPASSVSPARYPATSSVTLVDVSALRPNTTPQPSNSSMTTRGFNYPWTSSGTDTKKSVSRIPSETYSSSPSGAGSTLHDNVFTSTARAFSEVPTTANGSTKTNHVHITGIVVNKPKDGMSWPVIVAALLFCCMILFGLGVRKWCQYQKEIMERPPPFKPPPPPIKYTCIQEPNESDLPYHEMETL

These molecules were tested on D3.5 SOX17-GFP- non-PGCs (assay: High-throughput cell-surface marker screening (LEGENDScreen), %PE+). Settings: percentage of cells bound to the PE-conjugated antibody (LEGENDScreen).
Type: cell-based, human
B1 was tested, and the “% PE+ in non-PGCs” value was 0%. With B2 the “% PE+ in non-PGCs” value was 0.4265%. In the case of B3, the “% PE+ in non-PGCs” value is reported as 0.01863%. For B4, the “% PE+ in non-PGCs” value was 0.007286%. B5 was tested, and the “% PE+ in non-PGCs” value was 0.0001531%. B6 was tested, and the “% PE+ in non-PGCs” value was 0.2105%. In the case of B7, the “% PE+ in non-PGCs” value is reported as 0.0001621%. In the case of B8, the “% PE+ in non-PGCs” value is reported as 0.0001317%. For B9, the “% PE+ in non-PGCs” value was 0.0002532%.

The molecules below were run on undifferentiated hPSC (D0) in the same assay as above. Settings: percentage of cells bound to the PE-conjugated antibody (LEGENDScreen).
Type: cell-based, human
B1 was tested, and the “% PE+ in H1 UD” value was 99.5%. B2 was tested, and the “% PE+ in H1 UD” value was 99.7%. B3 was tested, and the “% PE+ in H1 UD” value was 0.2%. With B4 the “% PE+ in H1 UD” value was 99.8%. B5 was tested, and the “% PE+ in H1 UD” value was 0.13%. With B6 the “% PE+ in H1 UD” value was 77%. For B7, the “% PE+ in H1 UD” value was 99.7%. For B8, the “% PE+ in H1 UD” value was 99.9%. In the case of B9, the “% PE+ in H1 UD” value is reported as 0.69%.

The molecules below were run on D3.5 SOX17-GFP+ PGCs in the same assay as above. Settings: percentage of cells bound to the PE-conjugated antibody (LEGENDScreen).
Type: cell-based, human
In the case of B1, the “% PE+ in PGCs” value is reported as 0%. With B2 the “% PE+ in PGCs” value was 0.5426%. In the case of B3, the “% PE+ in PGCs” value is reported as 0.007105%. For B4, the “% PE+ in PGCs” value was 0.05532%. With B5 the “% PE+ in PGCs” value was 0%. B6 was tested, and the “% PE+ in PGCs” value was 0.09244%. For B7, the “% PE+ in PGCs” value was 0%. With B8 the “% PE+ in PGCs” value was 0%. B9 was tested, and the “% PE+ in PGCs” value was 0%.

— patent publication US20230242871A1, “GENERATION OF PRIMORDIAL GERM CELLS AND METHODS OF USING THE SAME” (The Board of Trustees of the Leland Stanfor Junior …, priority 2020, published 2023)
